The other results are listed elsewhere or left out.
Tests used:
Experiment in all cases: log2 fold change, soluble protein after heating vs DMSO (PISA); higher = thermal stabilisation; K562 lysate, 10 uM; active = over 0.2 and 3.5 SD of the protein, either way, in both replicates (recomputed)
nilotinib = compound: Cc1cn(-c2cc(NC(=O)c3ccc(C)c(Nc4nccc(-c5cccnc5)n4)c3)cc(C(F)(F)F)c2)cn1 [nilotinib]
Outline: (§1)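 Quantification was by TMTpro 16plex LC-MS/MS with equalised channel sums, applied to the supernatant after 21,000xg for 90 min. Samples were crude K562 extract at 1 mg/mL protein in PBS pH 7.4 with 1 mM MgCl2, treated with 10 μM compound for 30 min, heated for 3 min across 48°C-58°C, pooled and brought to 0.5% NP-40 at 4°C. Values are log-two fold changes in thermal stability relative to solvent controls, from duplicates.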

Amino acid sequences for entries named in this document (tags omitted). A change or cut given only in a name is not applied to a line headed by its entry.
UniProt Q8TF74: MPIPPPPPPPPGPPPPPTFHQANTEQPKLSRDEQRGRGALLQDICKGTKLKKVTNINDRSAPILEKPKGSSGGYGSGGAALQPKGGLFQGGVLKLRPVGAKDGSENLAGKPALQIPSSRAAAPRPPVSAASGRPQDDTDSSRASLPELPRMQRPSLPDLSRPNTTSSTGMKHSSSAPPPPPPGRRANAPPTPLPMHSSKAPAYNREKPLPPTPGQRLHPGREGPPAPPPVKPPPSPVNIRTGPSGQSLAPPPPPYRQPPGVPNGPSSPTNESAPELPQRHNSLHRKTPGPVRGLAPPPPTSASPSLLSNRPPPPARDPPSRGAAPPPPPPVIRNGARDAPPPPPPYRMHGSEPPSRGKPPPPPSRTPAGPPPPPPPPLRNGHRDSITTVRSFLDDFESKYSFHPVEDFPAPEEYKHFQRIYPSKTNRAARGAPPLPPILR
UniProt Q6RFH5: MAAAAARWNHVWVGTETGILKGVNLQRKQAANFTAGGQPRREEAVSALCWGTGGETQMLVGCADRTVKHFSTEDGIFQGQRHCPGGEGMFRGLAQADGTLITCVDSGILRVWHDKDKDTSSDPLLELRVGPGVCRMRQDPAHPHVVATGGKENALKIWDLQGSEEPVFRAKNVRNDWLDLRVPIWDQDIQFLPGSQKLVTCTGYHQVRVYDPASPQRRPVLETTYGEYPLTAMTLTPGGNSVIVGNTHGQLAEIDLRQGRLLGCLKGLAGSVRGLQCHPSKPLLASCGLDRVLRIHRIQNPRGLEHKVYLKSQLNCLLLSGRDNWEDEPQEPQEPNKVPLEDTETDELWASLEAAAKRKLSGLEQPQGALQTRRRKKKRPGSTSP
UniProt Q8TAF3: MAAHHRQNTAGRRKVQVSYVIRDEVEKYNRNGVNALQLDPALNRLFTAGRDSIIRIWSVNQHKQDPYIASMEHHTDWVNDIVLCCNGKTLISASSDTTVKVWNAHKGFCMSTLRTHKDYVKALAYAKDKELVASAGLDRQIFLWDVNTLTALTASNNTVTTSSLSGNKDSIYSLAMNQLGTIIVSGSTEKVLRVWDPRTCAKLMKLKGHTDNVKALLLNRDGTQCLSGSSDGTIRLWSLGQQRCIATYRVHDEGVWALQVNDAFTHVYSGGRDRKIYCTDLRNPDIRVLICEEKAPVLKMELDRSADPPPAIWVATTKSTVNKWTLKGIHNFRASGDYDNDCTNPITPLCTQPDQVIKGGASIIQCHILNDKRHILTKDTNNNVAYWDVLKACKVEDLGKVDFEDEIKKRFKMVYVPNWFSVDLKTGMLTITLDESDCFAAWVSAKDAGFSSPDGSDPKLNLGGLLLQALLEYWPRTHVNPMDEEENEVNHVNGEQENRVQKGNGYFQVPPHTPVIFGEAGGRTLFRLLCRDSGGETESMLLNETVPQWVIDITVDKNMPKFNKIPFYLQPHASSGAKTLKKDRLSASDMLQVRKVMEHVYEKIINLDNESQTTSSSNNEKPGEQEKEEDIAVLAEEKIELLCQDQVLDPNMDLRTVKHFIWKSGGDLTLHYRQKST
UniProt Q9Y484: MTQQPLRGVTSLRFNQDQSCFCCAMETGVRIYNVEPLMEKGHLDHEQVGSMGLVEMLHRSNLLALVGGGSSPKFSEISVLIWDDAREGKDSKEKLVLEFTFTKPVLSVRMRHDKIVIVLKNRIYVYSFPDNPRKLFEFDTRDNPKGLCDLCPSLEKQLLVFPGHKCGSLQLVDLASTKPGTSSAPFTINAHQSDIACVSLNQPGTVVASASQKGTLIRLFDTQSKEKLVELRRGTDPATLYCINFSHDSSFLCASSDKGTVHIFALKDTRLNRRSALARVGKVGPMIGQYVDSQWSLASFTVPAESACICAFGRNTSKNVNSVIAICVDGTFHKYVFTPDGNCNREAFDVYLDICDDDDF
UniProt O43516: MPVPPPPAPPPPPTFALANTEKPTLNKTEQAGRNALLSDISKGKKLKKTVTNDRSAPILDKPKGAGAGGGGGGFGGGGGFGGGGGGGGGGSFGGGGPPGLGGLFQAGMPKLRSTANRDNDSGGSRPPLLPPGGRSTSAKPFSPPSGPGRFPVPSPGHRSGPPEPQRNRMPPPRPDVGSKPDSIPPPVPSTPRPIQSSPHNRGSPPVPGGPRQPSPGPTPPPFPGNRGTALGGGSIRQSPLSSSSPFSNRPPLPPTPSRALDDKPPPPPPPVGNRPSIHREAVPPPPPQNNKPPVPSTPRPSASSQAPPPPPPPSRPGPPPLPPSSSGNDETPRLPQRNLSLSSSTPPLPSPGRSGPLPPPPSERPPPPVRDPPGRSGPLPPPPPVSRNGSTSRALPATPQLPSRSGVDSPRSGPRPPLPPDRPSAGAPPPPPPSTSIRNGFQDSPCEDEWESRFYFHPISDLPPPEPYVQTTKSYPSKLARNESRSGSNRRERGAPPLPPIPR
UniProt Q7Z5U6: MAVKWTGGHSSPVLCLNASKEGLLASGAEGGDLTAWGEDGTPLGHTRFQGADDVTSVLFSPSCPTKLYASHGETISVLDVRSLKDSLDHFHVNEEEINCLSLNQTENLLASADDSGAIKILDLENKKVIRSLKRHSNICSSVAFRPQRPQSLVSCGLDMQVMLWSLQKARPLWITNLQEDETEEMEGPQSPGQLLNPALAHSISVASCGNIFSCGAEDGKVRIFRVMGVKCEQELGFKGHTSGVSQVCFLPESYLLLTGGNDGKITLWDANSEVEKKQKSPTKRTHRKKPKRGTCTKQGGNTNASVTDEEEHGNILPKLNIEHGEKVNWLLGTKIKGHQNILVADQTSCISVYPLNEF
UniProt Q9BRX9: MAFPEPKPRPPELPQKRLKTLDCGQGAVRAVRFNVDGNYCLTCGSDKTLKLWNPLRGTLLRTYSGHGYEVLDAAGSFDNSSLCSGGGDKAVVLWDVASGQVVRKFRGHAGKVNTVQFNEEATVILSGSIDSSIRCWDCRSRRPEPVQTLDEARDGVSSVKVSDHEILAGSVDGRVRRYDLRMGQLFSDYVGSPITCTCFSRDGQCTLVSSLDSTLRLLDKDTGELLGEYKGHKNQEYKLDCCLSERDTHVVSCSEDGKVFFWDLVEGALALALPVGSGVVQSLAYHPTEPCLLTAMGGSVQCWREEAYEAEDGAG

[1] = compound: Cc1nc(Nc2n[nH]c3c2CN(C(=O)N[C@H](CN(C)C)c2ccccc2)C3(C)C)c2sccc2n1
Outline: as §1

dasatinib = compound: Cc1nc(Nc2ncc(C(=O)Nc3c(C)cccc3Cl)s2)cc(N2CCN(CCO)CC2)n1 [dasatinib]
Outline: as §1

[2] = compound: Cc1ncc(-c2ccnc(Nc3ccc(S(C)(=O)=O)cc3)n2)n1C(C)C
Outline: as §1

[3] = compound: Cn1cc(-c2ccc3c(c2)CCN3C(=O)Cc2cccc(C(F)(F)F)c2)c2c(N)ncnc21
Outline: as §1

quisinostat = compound: Cn1cc(CNCC2CCN(c3ncc(C(=O)NO)cn3)CC2)c2ccccc21 [quisinostat]
Outline: as §1

tipifarnib = compound: Cn1cncc1[C@@](N)(c1ccc(Cl)cc1)c1ccc2c(c1)c(-c1cccc(Cl)c1)cc(=O)n2C [tipifarnib]
Outline: as §1

[4] = compound: NC(=O)Nc1cc(-c2cccc(F)c2)sc1C(=O)N[C@H]1CCCNC1
Outline: as §1

[5] = compound: NC(=O)c1cnc(N[C@@H]2CCCC[C@@H]2N)nc1Nc1cccc(-n2nccn2)c1
Outline: as §1

[6] = compound: NC1(c2ccc(-c3nc4ccn5c(=O)[nH]nc5c4cc3-c3ccccc3)cc2)CCC1
Outline: as §1

[7] = compound: NCC(=O)Nc1ccc(-n2nc(C(F)(F)F)cc2-c2ccc3c(ccc4ccccc43)c2)cc1
Outline: as §1

vorinostat = compound: O=C(CCCCCCC(=O)Nc1ccccc1)NO [vorinostat]
Outline: as §1

silmitasertib = compound: O=C(O)c1ccc2c(c1)nc(Nc1cccc(Cl)c1)c1ccncc12 [silmitasertib]
Outline: as §1

[8] = compound: O=C1NC(=O)C(c2cnc3ccccn23)=C1c1cn2c3c(cc(F)cc13)CN(C(=O)N1CCCCC1)CC2
Outline: as §1

entospletinib = compound: c1cn2cc(-c3ccc4cn[nH]c4c3)nc(Nc3ccc(N4CCOCC4)cc3)c2n1 [entospletinib]
Outline: as §1

Measured: log2 fold change

VPS29 isoform 2 (UniProt Q9UBQ0)
inactive: nilotinib 0.008 | [1] -0.031 | dasatinib 0.015 | [2] -0.019 | [3] -0.028 | quisinostat 0.047 | tipifarnib 0.024 | [4] -0.044 | [5] 0.006 | [6] -0.017 | [7] 0 | vorinostat 0.142 | silmitasertib 0.001 | [8] -0.001 | entospletinib -0.006

WIPF2 (UniProt Q8TF74)
inactive: nilotinib -0.085 | [1] 0.029 | dasatinib 0.027 | [2] -0.034 | [3] -0.03 | quisinostat 0.02 | tipifarnib 0.121 | [4] 0.017 | [5] 0 | [6] -0.015 | [7] -0.007 | vorinostat 0.098 | silmitasertib -0.027 | [8] 0.014 | entospletinib -0.027

WDR74 (UniProt Q6RFH5)
inactive: nilotinib 0.037 | [1] -0.005 | dasatinib 0.004 | [2] 0.045 | [3] -0.045 | quisinostat -0.03 | tipifarnib 0.036 | [4] 0.036 | [5] -0.057 | [6] 0.016 | [7] -0.002 | vorinostat -0.085 | silmitasertib 0.001 | [8] -0.028 | entospletinib -0.002

Reprinted from the entries so far (2 entries):
VPS29 isoform 2 (UniProt Q9UBQ0)
inactive: nilotinib 0.008 | [1] -0.031 | dasatinib 0.015 | [2] -0.019 | [3] -0.028 | quisinostat 0.047 | tipifarnib 0.024 | [4] -0.044 | [5] 0.006 | [6] -0.017 | [7] 0 | vorinostat 0.142 | silmitasertib 0.001 | [8] -0.001 | entospletinib -0.006

WIPF2 (UniProt Q8TF74)
inactive: nilotinib -0.085 | [1] 0.029 | dasatinib 0.027 | [2] -0.034 | [3] -0.03 | quisinostat 0.02 | tipifarnib 0.121 | [4] 0.017 | [5] 0 | [6] -0.015 | [7] -0.007 | vorinostat 0.098 | silmitasertib -0.027 | [8] 0.014 | entospletinib -0.027

(list continues)

WDR48 (UniProt Q8TAF3)
inactive: nilotinib -0.024 | [1] 0.038 | dasatinib 0.01 | [2] 0.019 | [3] 0.02 | quisinostat -0.039 | tipifarnib 0.015 | [4] -0.02 | [5] 0.015 | [6] -0.028 | [7] 0.003 | vorinostat 0.053 | silmitasertib -0.009 | [8] -0.023 | entospletinib 0.01

WDR45 isoform 2 (UniProt Q9Y484)
inactive: nilotinib 0.04 | [1] -0.01 | dasatinib -0.085 | [2] -0.027 | [3] 0.049 | quisinostat 0.06 | tipifarnib 0.009 | [4] 0.013 | [5] -0.042 | [6] -0.028 | [7] 0.018 | vorinostat 0.025 | silmitasertib 0.016 | [8] 0 | entospletinib 0.009

WIPF1 isoform 3 (UniProt O43516)
inactive: nilotinib 0.008 | [1] 0.008 | dasatinib -0.017 | [2] 0.003 | [3] -0.09 | quisinostat -0.078 | tipifarnib -0.01 | [4] 0.036 | [5] 0.066 | [6] 0.009 | [7] 0.011 | vorinostat 0.021 | silmitasertib -0.038 | [8] 0.01 | entospletinib -0.023

WDR53 (UniProt Q7Z5U6)
inactive: nilotinib -0.158 | [1] 0.091 | dasatinib -0.037 | [2] 0.131 | [3] 0.075 | quisinostat -0.088 | tipifarnib -0.076 | [4] 0.096 | [6] 0.037 | [7] -0.104 | vorinostat -0.129 | silmitasertib 0.022 | [8] 0.026 | entospletinib 0.036

VPS35, A0A1W2PP10
inactive: nilotinib -0.052 | [1] -0.03 | [2] -0.031 | quisinostat -0.064 | tipifarnib -0.149 | [4] -0.018 | [5] 0.051 | [6] -0.154 | vorinostat -0.038 | silmitasertib -0.146 | [8] -0.029

WDR83 (UniProt Q9BRX9)
inactive: nilotinib 0.173 | [1] 0.092 | dasatinib -0.116 | [2] 0.058 | [3] 0.137 | tipifarnib -0.216 | [5] -0.039 | [7] 0.242
